Values from PubChem BioAssay AID1671195 (Yale University, 2021).
In all, the deposit lists about 22,000 reagents; below is a part drawn at random. Of all reagents, about 1,510 (6.9%) were called active. 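Active includes knockdowns raising or lowering LDL uptake; positive z-scores mean more uptake, negative mean less.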

Purpose: 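Genes whose knockdown alters LDL uptake in liver cancer cells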 (primary screen)
System: human Huh7 hepatoma cells
Knock-down reagent: siRNA pool against human genes, 18 nM
Duration: about 2 to 2.5 days of knockdown, then 8 h LDL uptake
Treatment: DiI-labelled LDL at 30 µg/ml for 8 h, in lipoprotein-deficient serum medium
Detection: 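Per-cell DiI-LDL intensity by automated imaging; well means scaled to the plate median and given as a robust z-score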
Reading the numbers: robust z-score: higher = more LDL uptake after knockdown
Hit rule: 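Active when two or more replicates show a robust z-score above 2 or below -2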

gene	robust z-score, replicate 1	robust z-score, replicate 2	robust z-score, replicate 3	activity call
GJD3 (GeneID 125111)	-0.687	-0.501	-0.327	inactive
LOC219414 (retired record) (GeneID 219414)	2.27	2.06	2.12	active
PDLIM1 (GeneID 9124)	0.749	1.13	-0.0382	inactive
OBSL1 (GeneID 23363)	-0.525	1.79	-1.49	inactive
OR51B5 (GeneID 282763)	1.5	2.3	1.51	inactive
ZFYVE27 (GeneID 118813)	0.101	-0.159	-1.04	inactive
COA7 (GeneID 65260)	-1.25	-1.33	-1.2	inactive
LOC442159 (retired record) (GeneID 442159)	-1.65	-1.38	-1.07	inactive
GPRACR (GeneID 401554)	-0.235	-0.371	-0.102	inactive
ACOT8 (GeneID 10005)	-0.491	-0.635	-0.516	inactive
RPS15AP34 (GeneID 390735)	-1.03	-0.632	-0.612	inactive
PRDM8 (GeneID 56978)	-0.825	-0.517	-0.957	inactive
KLHL26 (GeneID 55295)	0.92	0.578	-0.342	inactive
OR10W1 (GeneID 81341)	-1.81	-1.76	-1.78	inactive
GP1BA (GeneID 2811)	-0.968	-0.791	-0.44	inactive
TMEM204 (GeneID 79652)	-1.17	-0.991	-0.745	inactive
DESI1 (GeneID 27351)	2	0.277	1.34	inactive
ZNF462 (GeneID 58499)	-0.161	-0.0596	-0.398	inactive
SRP72 (GeneID 6731)	-0.549	-0.317	0.0379	inactive
LOC440458 (retired record) (GeneID 440458)	-0.516	-0.697	-0.571	inactive
DENND4C (GeneID 55667)	0.597	0.678	0.905	inactive
HSD17B4 (GeneID 3295)	0.253	0.938	0.407	inactive
GAB4 (GeneID 128954)	0.113	0.479	-0.969	inactive
DNAJB14 (GeneID 79982)	-0.547	-0.682	-0.329	inactive
CHST13 (GeneID 166012)	0.146	-0.446	-0.303	inactive
EML4 (GeneID 27436)	0.67	1.44	-0.495	inactive
C10orf88 (GeneID 80007)	-1.12	-0.948	-0.963	inactive
TM4SF18 (GeneID 116441)	-0.129	0.683	0.862	inactive
YWHAE (GeneID 7531)	0.963	0.356	0.837	inactive
CHPF2 (GeneID 54480)	0.0577	-0.682	-0.175	inactive
ABLIM1 (GeneID 3983)	-0.0254	0.393	-0.456	inactive
STEAP4 (GeneID 79689)	-1.56	-1.59	-0.817	inactive
TEAD4 (GeneID 7004)	0.724	1.3	0.984	inactive
GABPB1 (GeneID 2553)	0.0182	-0.487	-0.54	inactive
PROSER1 (GeneID 80209)	-0.46	-1.03	-1.37	inactive
SRSF2P1 (GeneID 392439)	-0.916	-0.931	-0.286	inactive
OPRD1 (GeneID 4985)	-0.537	-0.16	-0.15	inactive
NUDT5 (GeneID 11164)	-1.28	-0.603	-1.15	inactive
FLJ45684 (retired record) (GeneID 400666)	0.842	0.327	0.421	inactive
VGLL3 (GeneID 389136)	-1.68	-1.44	-1.49	inactive
HNF4A (GeneID 3172)	-0.539	-0.862	-1.54	inactive
PECR (GeneID 55825)	-2.37	-1.67	-2.04	active
FBXL22 (GeneID 283807)	1.04	1.01	0.604	inactive
FTO (GeneID 79068)	0.421	0.146	0.00228	inactive
LOC151261 (retired record) (GeneID 151261)	0.959	0.462	0.493	inactive
LCE2D (GeneID 353141)	2.98	3.26	2.51	active
LOC391298 (retired record) (GeneID 391298)	0.156	0.761	0.608	inactive
LOC441493 (retired record) (GeneID 441493)	-0.0961	-0.223	-0.316	inactive
SLITRK3 (GeneID 22865)	1.25	-0.079	-0.0999	inactive
LOC441969 (retired record) (GeneID 441969)	0.506	0.0777	0.0698	inactive
DIO2 (GeneID 1734)	0.121	-0.347	-0.389	inactive
MAN2B1 (GeneID 4125)	-0.583	-0.449	-0.867	inactive
DPP8 (GeneID 54878)	-1.54	-1.46	-1.57	inactive
PLCL2 (GeneID 23228)	-0.651	-0.02	-0.681	inactive
DBF4 (GeneID 10926)	-1.4	-0.581	-0.85	inactive
CD300LB (GeneID 124599)	-1.33	-1.18	-0.569	inactive
DNAH2 (GeneID 146754)	0.509	-0.276	0.294	inactive
LOC153910 (GeneID 153910)	0.351	-0.521	0.611	inactive
CIBAR2 (GeneID 339145)	1.57	1.3	1.52	inactive
CD28 (GeneID 940)	0.0494	-0.626	0.0304	inactive
UCHL5 (GeneID 51377)	0.267	0.398	0.42	inactive
SMR3A (GeneID 26952)	-1.19	-2.41	-0.878	inactive
CD74 (GeneID 972)	-0.66	-0.103	-0.42	inactive
CCDC112 (GeneID 153733)	-0.839	-2.04	-0.859	inactive
PTH1R (GeneID 5745)	-0.932	-1.31	-0.69	inactive
RELT (GeneID 84957)	-0.0735	-0.141	-0.614	inactive
TTLL5 (GeneID 23093)	-1.39	-1.17	-1.43	inactive
PEG10 (GeneID 23089)	-1.04	-1.3	0.213	inactive

9 consecutive records already listed, quoted:
gene	robust z-score, replicate 1	robust z-score, replicate 2	robust z-score, replicate 3	activity call
CHST13 (GeneID 166012)	0.146	-0.446	-0.303	inactive
EML4 (GeneID 27436)	0.67	1.44	-0.495	inactive
C10orf88 (GeneID 80007)	-1.12	-0.948	-0.963	inactive
TM4SF18 (GeneID 116441)	-0.129	0.683	0.862	inactive
YWHAE (GeneID 7531)	0.963	0.356	0.837	inactive
CHPF2 (GeneID 54480)	0.0577	-0.682	-0.175	inactive
ABLIM1 (GeneID 3983)	-0.0254	0.393	-0.456	inactive
STEAP4 (GeneID 79689)	-1.56	-1.59	-0.817	inactive
TEAD4 (GeneID 7004)	0.724	1.3	0.984	inactive
